Laboratory results as given in publication doi:10.1101/2025.04.08.647777 (bioRxiv, 2025).

The chains behind the UniProt entries cited, without tags or fusion partners. Where a name states a change or a piece, a line headed by the entry shows the natural chain unless it says otherwise.
UniProt O14576: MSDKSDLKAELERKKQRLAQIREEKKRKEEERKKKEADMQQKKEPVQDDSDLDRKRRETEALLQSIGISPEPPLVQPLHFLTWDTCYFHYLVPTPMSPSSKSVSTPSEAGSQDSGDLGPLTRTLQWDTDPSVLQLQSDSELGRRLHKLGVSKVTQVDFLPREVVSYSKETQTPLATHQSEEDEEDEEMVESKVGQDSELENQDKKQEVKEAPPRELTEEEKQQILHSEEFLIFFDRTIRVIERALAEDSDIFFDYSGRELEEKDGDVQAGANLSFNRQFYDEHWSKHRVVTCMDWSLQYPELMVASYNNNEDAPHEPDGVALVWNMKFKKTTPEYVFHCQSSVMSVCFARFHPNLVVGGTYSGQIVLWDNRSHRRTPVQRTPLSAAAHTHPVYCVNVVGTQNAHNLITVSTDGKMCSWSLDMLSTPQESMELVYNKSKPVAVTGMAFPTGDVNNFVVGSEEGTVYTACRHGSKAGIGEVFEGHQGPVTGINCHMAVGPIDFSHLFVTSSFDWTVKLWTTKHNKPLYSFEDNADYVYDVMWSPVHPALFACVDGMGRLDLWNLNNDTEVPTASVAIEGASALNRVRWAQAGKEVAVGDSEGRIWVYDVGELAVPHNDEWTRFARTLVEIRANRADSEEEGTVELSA
UniProt Q13561: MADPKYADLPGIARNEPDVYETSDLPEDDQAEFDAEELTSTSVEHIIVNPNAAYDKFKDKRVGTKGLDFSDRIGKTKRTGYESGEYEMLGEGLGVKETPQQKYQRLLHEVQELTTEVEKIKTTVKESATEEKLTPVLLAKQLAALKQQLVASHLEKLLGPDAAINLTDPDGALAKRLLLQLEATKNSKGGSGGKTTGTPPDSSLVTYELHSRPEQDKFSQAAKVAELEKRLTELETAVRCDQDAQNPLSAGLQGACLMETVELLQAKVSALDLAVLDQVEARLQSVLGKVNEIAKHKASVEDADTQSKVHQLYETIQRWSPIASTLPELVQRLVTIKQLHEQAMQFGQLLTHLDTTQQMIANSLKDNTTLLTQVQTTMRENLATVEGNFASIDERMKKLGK
UniProt O75935: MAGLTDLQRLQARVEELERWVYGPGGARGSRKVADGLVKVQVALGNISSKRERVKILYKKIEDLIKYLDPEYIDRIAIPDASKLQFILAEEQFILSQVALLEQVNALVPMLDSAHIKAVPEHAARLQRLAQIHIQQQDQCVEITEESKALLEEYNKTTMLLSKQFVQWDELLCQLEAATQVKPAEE
UniProt Q14204: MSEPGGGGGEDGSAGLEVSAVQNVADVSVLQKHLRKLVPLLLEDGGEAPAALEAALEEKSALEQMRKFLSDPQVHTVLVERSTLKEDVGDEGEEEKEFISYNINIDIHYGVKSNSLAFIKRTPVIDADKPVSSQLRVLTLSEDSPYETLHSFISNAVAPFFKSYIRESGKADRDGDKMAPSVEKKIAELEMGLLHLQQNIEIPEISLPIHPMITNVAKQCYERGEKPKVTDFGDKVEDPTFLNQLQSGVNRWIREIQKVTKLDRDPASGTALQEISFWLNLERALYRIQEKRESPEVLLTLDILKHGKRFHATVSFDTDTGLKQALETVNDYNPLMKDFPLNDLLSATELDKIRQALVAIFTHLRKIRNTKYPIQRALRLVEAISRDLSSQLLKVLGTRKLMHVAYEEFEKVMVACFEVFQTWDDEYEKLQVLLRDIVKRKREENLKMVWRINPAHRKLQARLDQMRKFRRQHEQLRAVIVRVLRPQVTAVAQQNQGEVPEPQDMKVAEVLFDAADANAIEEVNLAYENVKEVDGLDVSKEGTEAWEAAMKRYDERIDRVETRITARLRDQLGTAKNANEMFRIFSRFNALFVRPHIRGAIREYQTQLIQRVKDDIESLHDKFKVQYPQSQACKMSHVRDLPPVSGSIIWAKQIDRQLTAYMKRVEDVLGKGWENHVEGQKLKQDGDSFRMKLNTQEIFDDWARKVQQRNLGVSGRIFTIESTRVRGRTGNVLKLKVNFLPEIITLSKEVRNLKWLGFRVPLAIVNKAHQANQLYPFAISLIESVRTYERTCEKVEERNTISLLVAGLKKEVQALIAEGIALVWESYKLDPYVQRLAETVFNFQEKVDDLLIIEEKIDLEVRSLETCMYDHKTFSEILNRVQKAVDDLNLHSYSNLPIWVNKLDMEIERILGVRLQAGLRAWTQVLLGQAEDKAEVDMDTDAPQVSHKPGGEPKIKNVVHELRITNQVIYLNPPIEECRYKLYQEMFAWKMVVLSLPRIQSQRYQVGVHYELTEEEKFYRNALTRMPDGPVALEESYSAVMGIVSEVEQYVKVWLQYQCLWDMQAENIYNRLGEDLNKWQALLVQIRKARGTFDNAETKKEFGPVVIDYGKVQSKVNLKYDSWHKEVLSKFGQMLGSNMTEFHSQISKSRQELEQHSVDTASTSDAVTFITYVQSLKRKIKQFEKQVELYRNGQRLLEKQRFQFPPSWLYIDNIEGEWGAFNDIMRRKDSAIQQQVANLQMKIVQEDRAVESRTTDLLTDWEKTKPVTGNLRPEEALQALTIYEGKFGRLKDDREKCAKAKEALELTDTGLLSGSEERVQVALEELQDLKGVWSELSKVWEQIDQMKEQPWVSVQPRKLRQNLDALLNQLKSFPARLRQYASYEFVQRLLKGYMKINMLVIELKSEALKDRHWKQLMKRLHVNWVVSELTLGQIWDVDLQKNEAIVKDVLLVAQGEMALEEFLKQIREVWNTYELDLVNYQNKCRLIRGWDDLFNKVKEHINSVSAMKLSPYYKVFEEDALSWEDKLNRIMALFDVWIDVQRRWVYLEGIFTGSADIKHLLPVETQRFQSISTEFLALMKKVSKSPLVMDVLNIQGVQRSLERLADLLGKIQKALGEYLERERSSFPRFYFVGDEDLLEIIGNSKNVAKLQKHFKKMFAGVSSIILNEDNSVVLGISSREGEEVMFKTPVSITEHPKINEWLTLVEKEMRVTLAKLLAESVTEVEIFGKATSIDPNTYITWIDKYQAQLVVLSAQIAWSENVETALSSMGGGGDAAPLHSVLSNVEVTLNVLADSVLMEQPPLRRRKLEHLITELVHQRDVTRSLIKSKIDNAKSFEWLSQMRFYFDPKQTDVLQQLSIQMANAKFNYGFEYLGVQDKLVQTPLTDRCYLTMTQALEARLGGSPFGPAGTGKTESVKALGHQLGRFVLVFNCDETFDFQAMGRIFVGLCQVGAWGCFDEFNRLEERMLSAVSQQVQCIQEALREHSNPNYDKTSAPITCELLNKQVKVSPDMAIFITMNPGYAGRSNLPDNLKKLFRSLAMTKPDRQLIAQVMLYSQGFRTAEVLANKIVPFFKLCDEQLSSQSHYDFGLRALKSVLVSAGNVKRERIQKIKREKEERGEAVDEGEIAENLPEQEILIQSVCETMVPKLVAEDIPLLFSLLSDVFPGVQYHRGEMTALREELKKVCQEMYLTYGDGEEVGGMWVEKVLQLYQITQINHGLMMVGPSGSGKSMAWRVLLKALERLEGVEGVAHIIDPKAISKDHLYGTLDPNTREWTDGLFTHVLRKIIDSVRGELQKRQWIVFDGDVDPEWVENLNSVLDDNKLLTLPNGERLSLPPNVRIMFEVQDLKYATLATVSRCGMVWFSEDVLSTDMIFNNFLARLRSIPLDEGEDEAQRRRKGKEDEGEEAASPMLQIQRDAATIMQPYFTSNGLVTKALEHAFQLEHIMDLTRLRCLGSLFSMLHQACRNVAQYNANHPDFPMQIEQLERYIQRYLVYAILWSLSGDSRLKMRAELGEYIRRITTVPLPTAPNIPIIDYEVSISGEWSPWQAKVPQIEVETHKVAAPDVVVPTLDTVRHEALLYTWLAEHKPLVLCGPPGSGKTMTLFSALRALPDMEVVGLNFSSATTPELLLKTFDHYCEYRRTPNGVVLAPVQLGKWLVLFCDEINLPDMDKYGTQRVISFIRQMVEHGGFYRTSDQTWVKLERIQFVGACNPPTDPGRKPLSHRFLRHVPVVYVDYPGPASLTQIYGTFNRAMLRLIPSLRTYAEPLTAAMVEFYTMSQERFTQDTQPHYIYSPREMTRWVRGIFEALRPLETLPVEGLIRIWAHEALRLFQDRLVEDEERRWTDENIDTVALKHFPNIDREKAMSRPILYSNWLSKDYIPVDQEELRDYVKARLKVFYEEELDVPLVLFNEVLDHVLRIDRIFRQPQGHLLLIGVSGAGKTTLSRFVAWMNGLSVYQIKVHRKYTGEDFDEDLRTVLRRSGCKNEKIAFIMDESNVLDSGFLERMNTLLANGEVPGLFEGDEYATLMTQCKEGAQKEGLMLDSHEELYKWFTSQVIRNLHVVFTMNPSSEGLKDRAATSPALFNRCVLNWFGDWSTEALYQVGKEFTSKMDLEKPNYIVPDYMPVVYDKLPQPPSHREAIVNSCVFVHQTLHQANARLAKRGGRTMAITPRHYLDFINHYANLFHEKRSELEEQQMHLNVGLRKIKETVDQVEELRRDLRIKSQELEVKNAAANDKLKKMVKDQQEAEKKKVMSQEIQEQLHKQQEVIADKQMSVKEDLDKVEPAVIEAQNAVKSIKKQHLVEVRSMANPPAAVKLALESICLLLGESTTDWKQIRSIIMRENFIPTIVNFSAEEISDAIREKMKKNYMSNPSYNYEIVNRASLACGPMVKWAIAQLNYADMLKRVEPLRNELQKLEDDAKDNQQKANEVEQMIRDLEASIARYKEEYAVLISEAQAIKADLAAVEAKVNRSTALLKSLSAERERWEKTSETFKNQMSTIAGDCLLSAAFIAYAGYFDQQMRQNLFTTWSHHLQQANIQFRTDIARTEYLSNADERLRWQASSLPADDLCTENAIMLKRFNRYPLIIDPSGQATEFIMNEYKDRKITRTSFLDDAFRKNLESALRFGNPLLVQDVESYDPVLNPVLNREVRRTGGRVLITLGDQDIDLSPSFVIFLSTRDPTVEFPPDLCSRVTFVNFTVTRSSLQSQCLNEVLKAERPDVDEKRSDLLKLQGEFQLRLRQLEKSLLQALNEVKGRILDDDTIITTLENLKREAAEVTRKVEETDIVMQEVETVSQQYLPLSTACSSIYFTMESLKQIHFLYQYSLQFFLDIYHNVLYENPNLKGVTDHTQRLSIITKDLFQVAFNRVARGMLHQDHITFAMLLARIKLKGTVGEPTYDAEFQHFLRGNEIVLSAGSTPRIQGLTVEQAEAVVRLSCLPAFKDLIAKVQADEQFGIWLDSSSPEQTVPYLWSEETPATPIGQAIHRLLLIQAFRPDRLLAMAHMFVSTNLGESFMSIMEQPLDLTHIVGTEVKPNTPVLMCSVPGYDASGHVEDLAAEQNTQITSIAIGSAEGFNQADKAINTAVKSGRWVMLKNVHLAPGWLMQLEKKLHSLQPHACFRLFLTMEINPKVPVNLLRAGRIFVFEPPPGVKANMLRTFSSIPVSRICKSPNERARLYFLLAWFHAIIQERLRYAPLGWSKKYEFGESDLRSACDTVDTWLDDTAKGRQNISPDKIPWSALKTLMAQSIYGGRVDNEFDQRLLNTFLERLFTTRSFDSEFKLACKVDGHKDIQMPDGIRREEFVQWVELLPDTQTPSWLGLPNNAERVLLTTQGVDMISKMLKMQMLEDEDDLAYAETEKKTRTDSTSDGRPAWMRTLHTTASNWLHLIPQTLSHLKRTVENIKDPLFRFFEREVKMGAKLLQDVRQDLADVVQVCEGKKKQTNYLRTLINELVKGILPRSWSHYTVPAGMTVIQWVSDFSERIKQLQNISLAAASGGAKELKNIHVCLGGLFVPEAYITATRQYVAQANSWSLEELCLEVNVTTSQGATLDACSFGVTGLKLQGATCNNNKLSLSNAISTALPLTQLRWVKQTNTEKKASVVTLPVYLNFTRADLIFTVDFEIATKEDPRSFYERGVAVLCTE
UniProt O43237: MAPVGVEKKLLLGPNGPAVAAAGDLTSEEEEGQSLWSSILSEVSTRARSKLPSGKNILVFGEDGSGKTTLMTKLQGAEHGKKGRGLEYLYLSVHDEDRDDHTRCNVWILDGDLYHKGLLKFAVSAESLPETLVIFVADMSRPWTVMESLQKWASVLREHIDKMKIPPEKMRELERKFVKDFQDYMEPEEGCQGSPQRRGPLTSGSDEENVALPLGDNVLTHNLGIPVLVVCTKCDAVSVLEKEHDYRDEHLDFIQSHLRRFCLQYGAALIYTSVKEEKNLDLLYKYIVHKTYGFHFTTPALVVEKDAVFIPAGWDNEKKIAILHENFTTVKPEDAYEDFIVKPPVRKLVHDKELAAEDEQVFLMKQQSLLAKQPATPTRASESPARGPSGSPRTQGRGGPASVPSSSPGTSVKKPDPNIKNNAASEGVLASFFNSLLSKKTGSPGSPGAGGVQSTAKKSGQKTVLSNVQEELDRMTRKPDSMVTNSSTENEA

T1: SFB-Lis1 WT (UniProt P43034)
T1 sequence: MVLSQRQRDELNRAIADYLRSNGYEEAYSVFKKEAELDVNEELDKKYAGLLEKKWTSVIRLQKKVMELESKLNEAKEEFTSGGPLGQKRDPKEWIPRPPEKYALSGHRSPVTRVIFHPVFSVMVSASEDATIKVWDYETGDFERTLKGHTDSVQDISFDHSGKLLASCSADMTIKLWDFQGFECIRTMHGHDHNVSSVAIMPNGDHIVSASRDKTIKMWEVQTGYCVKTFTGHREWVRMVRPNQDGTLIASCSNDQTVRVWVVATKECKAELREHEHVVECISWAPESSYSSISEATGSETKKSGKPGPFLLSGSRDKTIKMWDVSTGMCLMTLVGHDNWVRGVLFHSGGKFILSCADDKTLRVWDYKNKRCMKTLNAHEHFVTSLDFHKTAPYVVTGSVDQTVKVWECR


Assays:
Assay in all cases: affinity purification with mass spectrometry
SFB-DIC1 WT = SFB-DIC1 WT (UniProt O14576)
SFB-DIC1 K42R = SFB-DIC1 K42R (UniProt O14576)
SFB-Lis1 WT = target: T1, SFB-Lis1 WT

| binding (SFB-DIC1 WT) | binding (SFB-DIC1 K42R) | binding (SFB-Lis1 WT) | Molecule |
| --- | --- | --- | --- |
| binds |  |  | dynactin subunit p62 (endogenous) (from UniProt Q9UJW0 1-460) |
|  |  | binds | Nde1 (endogenous) (protein, UniProt Q9NXR1 1-335) MEDSGKTFSSEEEEANYWKDLAMTYKQRAENTQEELREFQEGSREYEAELETQLQQIETRNRDLLSENNRLRMELETIKEKFEVQHSEGYRQISALEDDLAQTKAIKDQLQKYIRELEQANDDLERAKRATIMSLEDFEQRLNQAIERNAFLESELDEKENLLESVQRLKDEARDLRQELAVQQKQEKPRTPMPSSVEAERTDTAVQATGSVPSTPIAHRGPSSSLNTPGSFRRGLDDSTGGTPLTPAARISALNIVGDLLRKVGALESKLASCRNLVYDQSPNRTGGPASGRSSKNRDGGERRPSSTSVPLGDKGLDTSCRWLSKSTTRSSSSC |

Second part, the molecule before the results:

| Molecule | binding (SFB-DIC1 WT) | binding (SFB-DIC1 K42R) | binding (SFB-Lis1 WT) |
| --- | --- | --- | --- |
| dynactin subunit p50 (endogenous) (from UniProt Q13561 1-401) | binds |  |  |
| dynactin subunit p22 (endogenous) (from UniProt O75935 1-186) | binds |  |  |
| dynein heavy chain (DHC), endogenous (from UniProt Q14204 1-4646) | binds | binds |  |
| LIC2 (endogenous) (from UniProt O43237 1-492) | binds |  |  |

Results are given in words; binding and its absence hold for the method and conditions named. Binding seen in cells or lysates may run through a third protein. A yes stands for co-enrichment or nearness to the bait. Other partners may have been found.
